These are yes or no findings as the source states them, for the method shown. In cells and extracts the contact can be indirect. Binding can be weak; no strength is given.

Protein sequences, listed by entry. Tags and fused reporters are not part of them. Lines headed by an entry give the natural chain unless they say otherwise; changes in a name come on top.
UniProt A0ABF7PFJ0: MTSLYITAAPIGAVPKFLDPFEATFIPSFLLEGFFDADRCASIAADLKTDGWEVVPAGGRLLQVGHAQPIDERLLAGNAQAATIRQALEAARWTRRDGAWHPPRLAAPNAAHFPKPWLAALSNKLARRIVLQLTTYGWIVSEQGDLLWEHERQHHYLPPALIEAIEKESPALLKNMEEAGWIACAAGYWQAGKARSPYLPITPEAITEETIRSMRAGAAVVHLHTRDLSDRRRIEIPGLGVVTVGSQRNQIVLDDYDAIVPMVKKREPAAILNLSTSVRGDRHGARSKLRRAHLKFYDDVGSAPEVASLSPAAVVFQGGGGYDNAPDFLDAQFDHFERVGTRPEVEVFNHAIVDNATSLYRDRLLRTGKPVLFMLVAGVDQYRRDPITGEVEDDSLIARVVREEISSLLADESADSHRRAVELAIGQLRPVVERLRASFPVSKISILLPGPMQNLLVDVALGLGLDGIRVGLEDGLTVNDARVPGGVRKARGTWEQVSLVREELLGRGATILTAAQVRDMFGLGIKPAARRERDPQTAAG

The experiment has as its target ATP-dependent Lon protease of Burkholderia glumae BGR1 (bglu_1g13520) (Burkholderia glumae BGR1 (endogenous in B. glumae)). Description: co-IP; Pierce Direct IP kit; anti-ObcB or anti-Lon antibody (10 ug) coupled to AminoLink Plus resin; lysate of B. glumae BGR1 wild type (early stationary phase, 1 mg protein), 4°C, 24 h; western blot with anti-ObcA or anti-ObcB. (A western blot detects proteins with antibodies after separation by electrophoresis.)

On to “ObcA, oxalate biosynthetic enzyme of Burkholderia glumae (bglu_2g18790) (from UniProt A0ABF7PFJ0)”, for which the binding result is reported as “binds”.

These data come from publication PMC8443046.
